{"source": "PubChem BioAssay AID1159584 (Peter MacCallum Cancer Centre, 2016)", "test": "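Genes that CDH1-null MCF10A cells selectively depend on to survive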 (primary screen)", "cells": "human MCF10A breast epithelial cells, parental and CDH1-null", "reagents": "siRNA against human genes", "measurement": "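ATP luminescence (CellTiter-Glo) viability per line relative to mean mock wells over all plates, and the ratio of CDH1-null to parental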", "direction": "CDH1-null / parental viability ratio: higher = CDH1-null cells survive relatively better than parental", "note": "Here is a random part of about 18,000 reagents tested. Further read-outs or replicates are left out here. Not given: the amount of reagent, the time to read-out."}
{"gene knocked down":"MOSPD2","CDH1-null / parental viability ratio":1.05}
{"gene knocked down":"ELOC","CDH1-null / parental viability ratio":1.04}
{"gene knocked down":"CA12","CDH1-null / parental viability ratio":0.98}
{"gene knocked down":"S100A11","CDH1-null / parental viability ratio":0.98}
{"gene knocked down":"MAP7D2","CDH1-null / parental viability ratio":0.97}
{"gene knocked down":"SCRN2","CDH1-null / parental viability ratio":1.19}
{"gene knocked down":"SLC34A3","CDH1-null / parental viability ratio":0.96}
{"gene knocked down":"NDC1","CDH1-null / parental viability ratio":0.85}
{"gene knocked down":"CRAT","CDH1-null / parental viability ratio":0.96}
{"gene knocked down":"BCL9","CDH1-null / parental viability ratio":0.82}
{"gene knocked down":"LIN9","CDH1-null / parental viability ratio":1.06}
{"gene knocked down":"MRPS34","CDH1-null / parental viability ratio":1.02}
{"gene knocked down":"SLC39A10","CDH1-null / parental viability ratio":1.08}
{"gene knocked down":"P2RY14","CDH1-null / parental viability ratio":1.19}
{"gene knocked down":"HDDC2","CDH1-null / parental viability ratio":0.89}
{"gene knocked down":"ZDHHC16","CDH1-null / parental viability ratio":1.05}
{"gene knocked down":"TTC33","CDH1-null / parental viability ratio":0.97}
{"gene knocked down":"FMO4","CDH1-null / parental viability ratio":0.98}
{"gene knocked down":"CLINT1","CDH1-null / parental viability ratio":1.42}
{"gene knocked down":"TAGLN2","CDH1-null / parental viability ratio":0.97}
{"gene knocked down":"PTGDS","CDH1-null / parental viability ratio":1.34}
{"gene knocked down":"SPATA19","CDH1-null / parental viability ratio":0.83}
{"gene knocked down":"CLEC2B","CDH1-null / parental viability ratio":0.87}
{"gene knocked down":"SERPINI2","CDH1-null / parental viability ratio":0.99}
{"gene knocked down":"TOMM7","CDH1-null / parental viability ratio":1.08}
{"gene knocked down":"SH3BP2","CDH1-null / parental viability ratio":1.32}
{"gene knocked down":"KPNA1","CDH1-null / parental viability ratio":0.93}
{"gene knocked down":"CD53","CDH1-null / parental viability ratio":0.79}
{"gene knocked down":"COX6A1","CDH1-null / parental viability ratio":0.62}
{"gene knocked down":"NOM1","CDH1-null / parental viability ratio":0.98}
{"gene knocked down":"C6orf89","CDH1-null / parental viability ratio":1.3}
{"gene knocked down":"CCBE1","CDH1-null / parental viability ratio":1.03}
{"gene knocked down":"MCM6","CDH1-null / parental viability ratio":1.05}
{"gene knocked down":"KCNB2","CDH1-null / parental viability ratio":1.06}
{"gene knocked down":"SDHC","CDH1-null / parental viability ratio":1}
{"gene knocked down":"VPS9D1","CDH1-null / parental viability ratio":1.31}
{"gene knocked down":"SEC24D","CDH1-null / parental viability ratio":0.98}
{"gene knocked down":"SEMG1","CDH1-null / parental viability ratio":0.99}
{"gene knocked down":"PEDS1-UBE2V1","CDH1-null / parental viability ratio":1.11}
{"gene knocked down":"SLC10A2","CDH1-null / parental viability ratio":0.98}
{"gene knocked down":"UBE4B","CDH1-null / parental viability ratio":1.16}
{"gene knocked down":"CMTR1","CDH1-null / parental viability ratio":1.31}
{"gene knocked down":"SMC1B","CDH1-null / parental viability ratio":1.11}
{"gene knocked down":"COMMD4","CDH1-null / parental viability ratio":1.29}
{"gene knocked down":"SERPINB9","CDH1-null / parental viability ratio":1.15}

Records listed so far whose target name starts with K or k (2):
{"gene knocked down":"KPNA1","CDH1-null / parental viability ratio":0.93}
{"gene knocked down":"KCNB2","CDH1-null / parental viability ratio":1.06}
